These are yes or no findings as the source states them, for the method shown. Binding seen in cells or lysates may run through a third protein. Here binding means that the protein was enriched with, or labelled near, the bait; the list need not be complete.

Chains of the proteins cited; added tags and fusions are not shown.
UniProt P42568: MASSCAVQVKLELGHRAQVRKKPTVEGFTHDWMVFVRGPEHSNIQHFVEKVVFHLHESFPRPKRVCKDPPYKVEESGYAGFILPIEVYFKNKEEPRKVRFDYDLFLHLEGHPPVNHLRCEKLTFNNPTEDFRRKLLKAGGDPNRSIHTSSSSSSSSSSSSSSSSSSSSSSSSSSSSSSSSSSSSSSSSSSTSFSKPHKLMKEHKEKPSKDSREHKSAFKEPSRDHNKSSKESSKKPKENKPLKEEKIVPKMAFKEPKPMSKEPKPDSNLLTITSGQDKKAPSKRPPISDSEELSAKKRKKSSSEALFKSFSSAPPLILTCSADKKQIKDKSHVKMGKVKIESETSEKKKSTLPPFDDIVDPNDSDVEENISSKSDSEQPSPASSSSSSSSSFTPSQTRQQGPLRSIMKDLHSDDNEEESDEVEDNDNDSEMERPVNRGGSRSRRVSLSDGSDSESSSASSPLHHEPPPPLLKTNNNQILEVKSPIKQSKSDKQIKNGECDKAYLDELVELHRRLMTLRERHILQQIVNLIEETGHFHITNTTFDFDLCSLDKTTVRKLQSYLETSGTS
UniProt P09429: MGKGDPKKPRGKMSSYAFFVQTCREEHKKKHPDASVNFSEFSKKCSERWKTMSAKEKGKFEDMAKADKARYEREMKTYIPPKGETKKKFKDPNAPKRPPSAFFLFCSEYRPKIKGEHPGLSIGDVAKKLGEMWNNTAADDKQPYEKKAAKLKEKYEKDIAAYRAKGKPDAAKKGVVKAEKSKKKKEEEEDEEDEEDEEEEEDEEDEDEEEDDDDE
UniProt P67809: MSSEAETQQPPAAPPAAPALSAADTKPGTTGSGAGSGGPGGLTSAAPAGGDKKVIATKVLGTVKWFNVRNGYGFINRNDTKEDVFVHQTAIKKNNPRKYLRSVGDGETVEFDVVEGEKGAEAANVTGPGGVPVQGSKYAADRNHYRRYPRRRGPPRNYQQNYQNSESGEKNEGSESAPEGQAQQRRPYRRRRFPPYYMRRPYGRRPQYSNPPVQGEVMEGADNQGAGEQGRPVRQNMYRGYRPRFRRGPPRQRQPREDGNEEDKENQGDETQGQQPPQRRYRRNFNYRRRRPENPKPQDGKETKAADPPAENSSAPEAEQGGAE

This assay has as its target Flag-MLLT3 (Myeloid/Lymphoid Or Mixed-Lineage Leukemia; Translocated To, 3), full length (human) (UniProt P42568). Description: affinity purification with mass spectrometry; HEK-293T cells transfected with the Flag-MLLT3 plasmid; MLLT3-interacting proteins purified and analysed by LC-MS/MS.

For the substance “High mobility group box 1 (HMGB1), found with Flag-MLLT3 by LC-MS/MS (from UniProt P09429 1-215)”, the binding result was “binds”. In the case of “Y-box binding protein 1 (YBX1), found with Flag-MLLT3 by LC-MS/MS (from UniProt P67809 1-324)” it was “binds”.

Source of the values: article PMC11904942.
